Measured values reported in the supplement of paper PMC10849652.
This is one part of the list.

By UniProt entry, the sequences of proteins in these tests, tags left out. Where a name states a change or a piece, a line headed by the entry shows the natural chain unless it says otherwise.
UniProt P13498: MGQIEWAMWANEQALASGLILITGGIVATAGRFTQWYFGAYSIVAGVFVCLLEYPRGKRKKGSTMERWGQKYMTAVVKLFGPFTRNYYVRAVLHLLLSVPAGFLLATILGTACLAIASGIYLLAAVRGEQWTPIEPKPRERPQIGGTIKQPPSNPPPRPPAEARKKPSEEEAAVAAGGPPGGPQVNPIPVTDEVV
UniProt O75575: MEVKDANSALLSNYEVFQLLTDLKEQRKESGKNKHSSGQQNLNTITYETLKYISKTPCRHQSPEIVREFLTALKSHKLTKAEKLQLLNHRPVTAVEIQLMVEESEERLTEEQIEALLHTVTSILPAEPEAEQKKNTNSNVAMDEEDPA
UniProt Q9HCP0: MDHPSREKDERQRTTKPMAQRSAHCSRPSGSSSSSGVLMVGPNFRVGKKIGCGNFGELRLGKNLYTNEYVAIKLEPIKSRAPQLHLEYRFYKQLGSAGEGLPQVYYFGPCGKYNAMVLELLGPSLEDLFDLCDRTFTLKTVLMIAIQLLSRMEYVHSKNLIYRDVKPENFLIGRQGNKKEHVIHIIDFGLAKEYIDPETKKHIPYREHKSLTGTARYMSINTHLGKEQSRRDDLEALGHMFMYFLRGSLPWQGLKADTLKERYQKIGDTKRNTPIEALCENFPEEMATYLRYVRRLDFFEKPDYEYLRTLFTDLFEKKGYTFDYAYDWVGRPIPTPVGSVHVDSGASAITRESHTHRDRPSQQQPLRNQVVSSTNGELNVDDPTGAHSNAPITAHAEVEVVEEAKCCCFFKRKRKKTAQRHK
UniProt Q9BQA9: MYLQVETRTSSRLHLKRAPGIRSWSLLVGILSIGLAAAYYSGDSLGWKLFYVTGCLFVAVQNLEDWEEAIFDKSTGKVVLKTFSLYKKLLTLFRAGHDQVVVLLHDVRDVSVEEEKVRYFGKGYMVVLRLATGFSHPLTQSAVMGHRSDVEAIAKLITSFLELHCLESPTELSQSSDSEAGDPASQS
UniProt P52943: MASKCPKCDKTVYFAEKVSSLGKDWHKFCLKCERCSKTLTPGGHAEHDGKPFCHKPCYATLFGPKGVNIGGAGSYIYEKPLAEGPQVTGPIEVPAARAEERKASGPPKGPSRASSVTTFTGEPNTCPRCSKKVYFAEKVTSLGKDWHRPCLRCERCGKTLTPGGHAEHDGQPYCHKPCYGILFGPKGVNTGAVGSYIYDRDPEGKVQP
UniProt O75534: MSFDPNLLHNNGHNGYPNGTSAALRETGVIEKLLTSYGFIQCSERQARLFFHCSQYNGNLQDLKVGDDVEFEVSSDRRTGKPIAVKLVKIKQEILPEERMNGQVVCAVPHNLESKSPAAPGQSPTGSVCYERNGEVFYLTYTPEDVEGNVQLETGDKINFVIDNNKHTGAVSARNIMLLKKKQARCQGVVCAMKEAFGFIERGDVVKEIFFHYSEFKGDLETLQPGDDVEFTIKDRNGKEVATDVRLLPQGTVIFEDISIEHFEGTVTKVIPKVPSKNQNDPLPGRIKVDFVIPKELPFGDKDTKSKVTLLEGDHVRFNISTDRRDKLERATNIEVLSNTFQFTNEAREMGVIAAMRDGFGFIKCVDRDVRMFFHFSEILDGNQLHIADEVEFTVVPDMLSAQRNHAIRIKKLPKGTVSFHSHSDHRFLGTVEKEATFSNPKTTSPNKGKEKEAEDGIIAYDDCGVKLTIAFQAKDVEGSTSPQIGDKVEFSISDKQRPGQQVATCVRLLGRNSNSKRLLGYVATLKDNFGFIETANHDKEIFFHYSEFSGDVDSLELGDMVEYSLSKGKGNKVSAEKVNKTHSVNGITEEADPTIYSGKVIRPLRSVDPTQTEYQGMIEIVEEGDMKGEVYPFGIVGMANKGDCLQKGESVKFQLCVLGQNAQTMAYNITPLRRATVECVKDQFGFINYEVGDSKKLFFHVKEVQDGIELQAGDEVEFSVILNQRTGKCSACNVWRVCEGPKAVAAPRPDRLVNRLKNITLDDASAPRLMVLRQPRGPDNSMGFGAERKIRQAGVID
UniProt P43155: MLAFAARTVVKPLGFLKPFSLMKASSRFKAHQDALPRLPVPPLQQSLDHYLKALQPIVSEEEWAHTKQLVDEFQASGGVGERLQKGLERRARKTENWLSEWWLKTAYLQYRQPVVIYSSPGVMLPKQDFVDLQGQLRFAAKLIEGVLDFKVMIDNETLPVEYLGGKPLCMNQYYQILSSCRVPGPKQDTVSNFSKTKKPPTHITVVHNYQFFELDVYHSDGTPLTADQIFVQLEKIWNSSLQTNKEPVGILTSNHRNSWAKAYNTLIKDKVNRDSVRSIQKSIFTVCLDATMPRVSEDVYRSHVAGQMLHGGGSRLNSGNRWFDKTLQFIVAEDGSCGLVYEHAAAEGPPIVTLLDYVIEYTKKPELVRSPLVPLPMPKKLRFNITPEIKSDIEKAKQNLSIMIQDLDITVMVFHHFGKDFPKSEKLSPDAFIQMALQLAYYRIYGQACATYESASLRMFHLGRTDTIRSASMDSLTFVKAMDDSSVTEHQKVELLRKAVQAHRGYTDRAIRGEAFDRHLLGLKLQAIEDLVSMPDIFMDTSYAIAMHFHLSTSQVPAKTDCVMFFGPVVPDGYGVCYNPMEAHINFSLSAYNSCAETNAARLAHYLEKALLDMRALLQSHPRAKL
UniProt P17812: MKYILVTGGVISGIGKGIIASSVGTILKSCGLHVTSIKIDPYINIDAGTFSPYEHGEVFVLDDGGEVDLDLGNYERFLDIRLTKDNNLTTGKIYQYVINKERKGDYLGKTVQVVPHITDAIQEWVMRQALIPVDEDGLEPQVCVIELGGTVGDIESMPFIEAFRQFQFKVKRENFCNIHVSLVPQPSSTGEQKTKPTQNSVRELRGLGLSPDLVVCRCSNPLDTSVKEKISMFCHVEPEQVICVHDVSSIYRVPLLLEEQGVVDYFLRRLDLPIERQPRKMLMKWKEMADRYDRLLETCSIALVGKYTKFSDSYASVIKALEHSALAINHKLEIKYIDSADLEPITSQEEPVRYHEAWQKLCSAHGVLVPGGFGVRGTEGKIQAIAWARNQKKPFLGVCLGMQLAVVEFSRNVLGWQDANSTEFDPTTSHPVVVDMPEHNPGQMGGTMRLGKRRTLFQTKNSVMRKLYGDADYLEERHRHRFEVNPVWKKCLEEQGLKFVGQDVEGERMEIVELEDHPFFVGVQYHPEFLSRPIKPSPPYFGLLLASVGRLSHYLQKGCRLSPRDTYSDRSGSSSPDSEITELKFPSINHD
UniProt P01036: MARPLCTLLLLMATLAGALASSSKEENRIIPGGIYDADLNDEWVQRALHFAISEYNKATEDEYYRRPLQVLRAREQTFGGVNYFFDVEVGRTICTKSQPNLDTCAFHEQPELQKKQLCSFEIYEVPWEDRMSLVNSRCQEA
UniProt Q9Y2S2: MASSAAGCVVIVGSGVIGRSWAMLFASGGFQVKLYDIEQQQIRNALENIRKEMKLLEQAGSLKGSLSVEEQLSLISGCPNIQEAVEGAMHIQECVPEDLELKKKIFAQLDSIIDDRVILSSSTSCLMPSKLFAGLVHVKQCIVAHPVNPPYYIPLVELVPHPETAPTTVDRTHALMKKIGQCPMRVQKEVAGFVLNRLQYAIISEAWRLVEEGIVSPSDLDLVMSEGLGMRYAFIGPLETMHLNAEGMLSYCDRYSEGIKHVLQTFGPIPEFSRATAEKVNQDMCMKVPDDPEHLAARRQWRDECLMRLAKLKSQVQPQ
UniProt Q96DE9: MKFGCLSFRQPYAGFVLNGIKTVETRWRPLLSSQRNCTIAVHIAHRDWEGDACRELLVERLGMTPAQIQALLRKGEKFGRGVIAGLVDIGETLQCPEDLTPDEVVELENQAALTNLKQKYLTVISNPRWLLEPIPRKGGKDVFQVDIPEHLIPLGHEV
UniProt P49447: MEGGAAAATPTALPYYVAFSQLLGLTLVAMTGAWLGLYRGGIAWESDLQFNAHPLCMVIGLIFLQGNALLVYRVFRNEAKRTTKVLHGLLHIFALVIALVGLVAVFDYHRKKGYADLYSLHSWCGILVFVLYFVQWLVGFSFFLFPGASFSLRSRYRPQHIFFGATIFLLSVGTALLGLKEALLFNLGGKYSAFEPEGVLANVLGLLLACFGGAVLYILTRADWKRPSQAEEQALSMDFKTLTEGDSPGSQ
UniProt P0C2W7: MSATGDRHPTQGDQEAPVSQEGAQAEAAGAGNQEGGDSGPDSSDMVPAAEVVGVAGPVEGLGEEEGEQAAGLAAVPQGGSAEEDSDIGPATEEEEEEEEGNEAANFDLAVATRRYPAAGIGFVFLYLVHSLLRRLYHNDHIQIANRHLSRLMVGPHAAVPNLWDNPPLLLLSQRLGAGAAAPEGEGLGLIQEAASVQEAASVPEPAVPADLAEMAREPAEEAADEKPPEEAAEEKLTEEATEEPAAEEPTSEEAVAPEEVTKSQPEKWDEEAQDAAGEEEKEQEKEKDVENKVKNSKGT
UniProt Q16619: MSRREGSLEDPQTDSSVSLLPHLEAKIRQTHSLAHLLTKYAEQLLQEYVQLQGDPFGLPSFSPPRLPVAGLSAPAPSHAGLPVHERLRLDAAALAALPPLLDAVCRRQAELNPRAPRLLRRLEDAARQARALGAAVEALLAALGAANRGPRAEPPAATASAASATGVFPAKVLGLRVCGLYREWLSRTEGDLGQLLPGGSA
UniProt Q70SY1: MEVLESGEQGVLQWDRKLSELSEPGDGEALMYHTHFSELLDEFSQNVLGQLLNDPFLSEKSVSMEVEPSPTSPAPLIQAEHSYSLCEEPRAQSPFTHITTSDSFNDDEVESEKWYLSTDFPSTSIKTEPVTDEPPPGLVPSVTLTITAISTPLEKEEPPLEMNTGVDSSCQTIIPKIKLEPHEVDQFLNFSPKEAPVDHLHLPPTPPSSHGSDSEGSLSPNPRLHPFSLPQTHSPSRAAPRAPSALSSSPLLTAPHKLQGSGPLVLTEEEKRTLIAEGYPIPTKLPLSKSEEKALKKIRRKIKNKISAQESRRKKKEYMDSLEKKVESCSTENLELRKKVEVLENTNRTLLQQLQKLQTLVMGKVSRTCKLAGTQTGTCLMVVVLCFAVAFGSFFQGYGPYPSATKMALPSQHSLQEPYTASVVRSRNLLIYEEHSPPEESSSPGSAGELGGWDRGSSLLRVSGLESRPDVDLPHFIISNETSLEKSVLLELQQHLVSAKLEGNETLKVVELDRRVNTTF
UniProt Q8N6G5: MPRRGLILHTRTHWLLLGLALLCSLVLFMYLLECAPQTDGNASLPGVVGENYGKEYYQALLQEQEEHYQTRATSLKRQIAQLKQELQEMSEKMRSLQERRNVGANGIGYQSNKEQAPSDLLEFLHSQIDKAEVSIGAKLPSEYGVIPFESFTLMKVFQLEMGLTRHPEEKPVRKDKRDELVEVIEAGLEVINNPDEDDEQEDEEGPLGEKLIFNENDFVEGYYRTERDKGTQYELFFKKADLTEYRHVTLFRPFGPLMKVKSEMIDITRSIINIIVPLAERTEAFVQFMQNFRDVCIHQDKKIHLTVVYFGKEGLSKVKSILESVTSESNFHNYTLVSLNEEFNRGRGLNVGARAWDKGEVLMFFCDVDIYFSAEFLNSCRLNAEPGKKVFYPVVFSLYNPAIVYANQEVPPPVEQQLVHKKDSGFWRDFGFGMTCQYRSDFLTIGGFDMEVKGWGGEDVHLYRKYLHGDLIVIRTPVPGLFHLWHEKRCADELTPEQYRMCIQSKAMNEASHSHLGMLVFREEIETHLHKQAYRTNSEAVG
UniProt Q14894: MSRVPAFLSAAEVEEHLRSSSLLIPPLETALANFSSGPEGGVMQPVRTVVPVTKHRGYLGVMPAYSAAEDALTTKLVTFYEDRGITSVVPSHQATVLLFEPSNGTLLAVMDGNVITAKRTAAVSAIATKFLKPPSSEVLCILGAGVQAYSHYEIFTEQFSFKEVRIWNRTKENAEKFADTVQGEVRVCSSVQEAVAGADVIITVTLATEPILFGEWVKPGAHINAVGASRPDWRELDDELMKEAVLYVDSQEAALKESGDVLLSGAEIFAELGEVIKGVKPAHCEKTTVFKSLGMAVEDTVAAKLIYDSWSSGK
UniProt P10619: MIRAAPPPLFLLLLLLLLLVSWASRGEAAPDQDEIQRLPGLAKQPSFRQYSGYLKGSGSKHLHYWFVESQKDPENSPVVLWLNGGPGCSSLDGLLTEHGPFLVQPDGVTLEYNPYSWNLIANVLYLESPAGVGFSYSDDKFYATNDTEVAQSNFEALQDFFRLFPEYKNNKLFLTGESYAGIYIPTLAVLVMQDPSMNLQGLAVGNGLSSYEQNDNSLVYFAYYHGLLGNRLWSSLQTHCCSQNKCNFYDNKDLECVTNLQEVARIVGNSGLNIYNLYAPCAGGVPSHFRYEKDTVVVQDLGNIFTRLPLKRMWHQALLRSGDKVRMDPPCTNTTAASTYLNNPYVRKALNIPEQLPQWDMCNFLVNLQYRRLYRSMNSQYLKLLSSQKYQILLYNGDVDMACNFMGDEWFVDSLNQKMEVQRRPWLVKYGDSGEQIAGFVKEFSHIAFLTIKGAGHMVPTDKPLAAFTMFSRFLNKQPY

Experiments:
Assay in all cases: log2 fold change, soluble protein after heating vs DMSO (PISA); higher = thermal stabilisation; K562 lysate, 10 uM; active = over 0.2 and 3.5 SD of the protein, either way, in both replicates (recomputed)
lapatinib = compound: CS(=O)(=O)CCNCc1ccc(-c2ccc3ncnc(Nc4ccc(OCc5cccc(F)c5)c(Cl)c4)c3c2)o1 [lapatinib]
Summary of the method: (§1)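 Log-two fold change in thermal stability relative to solvent controls is reported from duplicates. For each sample, crude K562 extract from dounce-homogenised pellets in PBS pH 7.4 with 1 mM MgCl2, at 1 mg/mL protein, was treated with 10 μM compound for 30 min. Aliquots heated for 3 min across 48°C-58°C were pooled, brought to 0.5% NP-40 at 4°C and cleared at 21,000xg for 90 min. The supernatant was quantified by TMTpro 16plex LC-MS/MS with channel sums equalised.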

pictilisib = compound: CS(=O)(=O)N1CCN(Cc2cc3nc(-c4cccc5[nH]ncc45)nc(N4CCOCC4)c3s2)CC1 [pictilisib]
Summary of the method: as §1

crizotinib = compound: C[C@@H](Oc1cc(-c2cnn(C3CCNCC3)c2)cnc1N)c1c(Cl)ccc(F)c1Cl [crizotinib]
Summary of the method: as §1

[1] = compound: C[C@H](C1=CC=C(C=C1)C(=O)NC2=C3C=CNC3=NC=C2)N
Summary of the method: as §1

duvelisib = compound: C[C@H](Nc1ncnc2nc[nH]c12)c1cc2cccc(Cl)c2c(=O)n1-c1ccccc1 [duvelisib]
Summary of the method: as §1

gandotinib = compound: Cc1cc(Nc2cc(CN3CCOCC3)c3nc(C)c(Cc4ccc(Cl)cc4F)n3n2)n[nH]1 [gandotinib]
Summary of the method: as §1

tozasertib = compound: Cc1cc(Nc2cc(N3CCN(C)CC3)nc(Sc3ccc(NC(=O)C4CC4)cc3)n2)n[nH]1 [tozasertib]
Summary of the method: as §1

doramapimod = compound: Cc1ccc(-n2nc(C(C)(C)C)cc2NC(=O)Nc2ccc(OCCN3CCOCC3)c3ccccc23)cc1 [doramapimod]
Summary of the method: as §1

bafetinib = compound: Cc1ccc(NC(=O)c2ccc(CN3CC[C@H](N(C)C)C3)c(C(F)(F)F)c2)cc1Nc1nccc(-c2cncnc2)n1 [bafetinib]
Summary of the method: as §1

[2] = compound: Cc1cccc(CC(=O)N2CCc3c2ccc(-c2cn(C)c4ncnc(N)c24)c3F)n1
Summary of the method: as §1

nilotinib = compound: Cc1cn(-c2cc(NC(=O)c3ccc(C)c(Nc4nccc(-c5cccnc5)n4)c3)cc(C(F)(F)F)c2)cn1 [nilotinib]
Summary of the method: as §1

[3] = compound: Cc1nc(Nc2n[nH]c3c2CN(C(=O)N[C@H](CN(C)C)c2ccccc2)C3(C)C)c2sccc2n1
Summary of the method: as §1

dasatinib = compound: Cc1nc(Nc2ncc(C(=O)Nc3c(C)cccc3Cl)s2)cc(N2CCN(CCO)CC2)n1 [dasatinib]
Summary of the method: as §1

[4] = compound: Cc1ncc(-c2ccnc(Nc3ccc(S(C)(=O)=O)cc3)n2)n1C(C)C
Summary of the method: as §1

[5] = compound: Cn1cc(-c2ccc3c(c2)CCN3C(=O)Cc2cccc(C(F)(F)F)c2)c2c(N)ncnc21
Summary of the method: as §1

quisinostat = compound: Cn1cc(CNCC2CCN(c3ncc(C(=O)NO)cn3)CC2)c2ccccc21 [quisinostat]
Summary of the method: as §1

tipifarnib = compound: Cn1cncc1[C@@](N)(c1ccc(Cl)cc1)c1ccc2c(c1)c(-c1cccc(Cl)c1)cc(=O)n2C [tipifarnib]
Summary of the method: as §1

[6] = compound: NC(=O)Nc1cc(-c2cccc(F)c2)sc1C(=O)N[C@H]1CCCNC1
Summary of the method: as §1

[7] = compound: NC(=O)c1cnc(N[C@@H]2CCCC[C@@H]2N)nc1Nc1cccc(-n2nccn2)c1
Summary of the method: as §1

[8] = compound: NC1(c2ccc(-c3nc4ccn5c(=O)[nH]nc5c4cc3-c3ccccc3)cc2)CCC1
Summary of the method: as §1

Measured: log2 fold change

CYBA (UniProt P13498)
inactive: lapatinib -0.132 | pictilisib -0.017 | crizotinib -0.007 | [1] 0.028 | duvelisib -0.044 | gandotinib -0.074 | tozasertib 0.067 | doramapimod -0.009 | bafetinib -0.031 | [2] -0.038 | nilotinib -0.03 | [3] 0.094 | dasatinib -0.057 | [4] -0.035 | [5] 0.022 | quisinostat 0.056 | tipifarnib 0.038 | [6] 0.018 | [7] -0.048 | [8] 0.019

CUL9 (UniProt Q8IWT3)
inactive: lapatinib -0.06 | pictilisib -0.326 | crizotinib -0.024 | [1] 0.014 | gandotinib 0.143 | doramapimod -0.07 | bafetinib 0.255 | [2] 0.059 | nilotinib 0.024 | [3] -0.045 | [4] 0.128 | quisinostat -0.122 | tipifarnib -0.012 | [6] 0.105 | [7] -0.022 | [8] 0.082

CRCP (UniProt O75575)
inactive: lapatinib -0.048 | pictilisib -0.075 | crizotinib 0.086 | [1] 0.015 | gandotinib 0.023 | tozasertib 0.046 | doramapimod -0.052 | bafetinib 0.054 | [2] 0.063 | nilotinib -0.024 | [3] 0 | [4] -0.033 | quisinostat 0.006 | tipifarnib -0.021 | [6] 0.052 | [7] 0.057 | [8] 0.009

CSNK1G1 (UniProt Q9HCP0)
inactive: lapatinib -0.178 | pictilisib 0.215 | duvelisib 0.001 | tozasertib -0.212 | bafetinib -0.071 | dasatinib -0.028 | [5] -0.083 | [7] -0.058 | [8] -0.043

CYBC1 (UniProt Q9BQA9)
inactive: lapatinib -0.031 | pictilisib 0.007 | crizotinib -0.055 | [1] -0.169 | duvelisib 0.009 | gandotinib 0.092 | tozasertib 0.038 | doramapimod 0.073 | bafetinib -0.081 | [2] 0.064 | nilotinib 0.03 | [3] -0.035 | dasatinib -0.03 | [4] -0.01 | [5] 0.136 | quisinostat -0.159 | tipifarnib -0.059 | [6] 0.02 | [7] -0.026 | [8] -0.069

CUX1 isoform 2 (UniProt Q13948)
inactive: lapatinib -0.168 | crizotinib -0.073 | [1] 0.104 | duvelisib 0.014 | gandotinib 0.041 | tozasertib 0.057 | doramapimod -0.12 | [2] -0.089 | dasatinib 0.001 | [5] 0.101 | quisinostat 0.072 | [6] -0.026 | [7] -0.073 | [8] 0.012

CRIP2 isoform 2 (UniProt P52943)
inactive: lapatinib 0.011 | pictilisib -0.069 | crizotinib -0.022 | [1] 0.053 | duvelisib -0.112 | gandotinib -0.012 | doramapimod -0.103 | bafetinib -0.021 | [2] -0.107 | nilotinib 0.06 | [3] 0.086 | dasatinib 0.06 | [4] -0.237 | [5] 0.043 | quisinostat 0.03 | tipifarnib -0.075 | [6] -0.116 | [7] 0.018 | [8] -0.226

CSDE1 isoform 3 (UniProt O75534)
inactive: lapatinib 0.184 | pictilisib -0.141 | crizotinib -0.179 | [1] 0.139 | gandotinib -0.043 | doramapimod 0.055 | bafetinib 0.126 | [2] -0.058 | nilotinib 0.064 | [3] -0.135 | [4] 0.016 | quisinostat 0.022 | tipifarnib -0.02 | [6] -0.085 | [7] -0.021

CRAT (UniProt P43155)
inactive: lapatinib 0.076 | pictilisib -0.268 | crizotinib 0.011 | duvelisib -0.095 | doramapimod 0.011 | bafetinib 0.016 | dasatinib -0.074 | [5] -0.012 | quisinostat -0.023 | [6] 0.048 | [7] -0.056 | [8] -0.116

CTPS1 (UniProt P17812)
inactive: lapatinib -0.007 | pictilisib -0.015 | crizotinib -0.044 | [1] 0.004 | duvelisib -0.003 | gandotinib -0.052 | tozasertib -0.004 | doramapimod 0.005 | bafetinib 0.078 | [2] 0.015 | nilotinib 0.009 | [3] -0.005 | dasatinib -0.058 | [4] 0.011 | [5] 0.026 | quisinostat -0.019 | tipifarnib -0.015 | [6] 0.028 | [7] 0.002 | [8] -0.004

CST4 (UniProt P01036)
inactive: lapatinib 0.099 | pictilisib 0.025 | duvelisib 0.045 | tozasertib 0.693 | bafetinib 0.035 | dasatinib -0.007 | [5] 0.141 | [7] 0.038 | [8] 0.722

CRYL1 (UniProt Q9Y2S2)
inactive: lapatinib -0.152 | crizotinib -0.074 | duvelisib 0.049 | doramapimod -0.043 | dasatinib -0.184 | [5] -0.078 | quisinostat -0.125 | [6] -0.034 | [7] -0.164 | [8] 0.177

CXorf40B (UniProt Q96DE9)
inactive: lapatinib 0.018 | pictilisib 0.034 | crizotinib 0.043 | [1] -0.079 | duvelisib 0.048 | gandotinib -0.045 | doramapimod -0.097 | bafetinib -0.083 | [2] -0.009 | nilotinib -0.018 | [3] 0.018 | dasatinib -0.052 | [4] -0.001 | [5] 0.107 | quisinostat 0.075 | tipifarnib 0.057 | [6] 0.035 | [7] 0.112

CYB561 (UniProt P49447)
inactive: lapatinib 0.007 | pictilisib -0.075 | crizotinib 0.005 | [1] -0.247 | duvelisib 0.095 | gandotinib 0.159 | tozasertib -0.082 | doramapimod 0.113 | bafetinib 0.157 | [2] 0.161 | dasatinib 0.028 | [5] -0.004 | quisinostat -0.184 | [6] 0.141 | [7] 0.039 | [8] 0.066

CT47B1 (UniProt P0C2W7)
inactive: lapatinib 0.11 | pictilisib 0.134 | crizotinib -0.031 | duvelisib 0.131 | tozasertib 0.031 | doramapimod -0.097 | bafetinib 0.176 | nilotinib -0.078 | [3] 0.141 | dasatinib 0.03 | [4] 0.013 | [5] 0.044 | quisinostat 0 | tipifarnib 0.048 | [6] 0.042 | [7] 0.079 | [8] -0.111

Random excerpt: 2 entries already listed
CUX1 isoform 2 (UniProt Q13948)
inactive: lapatinib -0.168 | crizotinib -0.073 | [1] 0.104 | duvelisib 0.014 | gandotinib 0.041 | tozasertib 0.057 | doramapimod -0.12 | [2] -0.089 | dasatinib 0.001 | [5] 0.101 | quisinostat 0.072 | [6] -0.026 | [7] -0.073 | [8] 0.012

CUL9 (UniProt Q8IWT3)
inactive: lapatinib -0.06 | pictilisib -0.326 | crizotinib -0.024 | [1] 0.014 | gandotinib 0.143 | doramapimod -0.07 | bafetinib 0.255 | [2] 0.059 | nilotinib 0.024 | [3] -0.045 | [4] 0.128 | quisinostat -0.122 | tipifarnib -0.012 | [6] 0.105 | [7] -0.022 | [8] 0.082

Following part:

CTF1 (UniProt Q16619)
inactive: lapatinib 0.075 | crizotinib -0.105 | [1] -0.069 | duvelisib 0.015 | gandotinib 0.026 | tozasertib 0.029 | doramapimod -0.138 | [2] 0.018 | dasatinib -0.09 | [5] -0.071 | quisinostat 0.157 | [6] 0.024 | [7] 0.077 | [8] -0.064

CREB3L2 (UniProt Q70SY1)
inactive: lapatinib 0.003 | pictilisib -0.02 | [1] -0.151 | duvelisib -0.066 | gandotinib 0.337 | tozasertib 0.071 | bafetinib 0.011 | [2] 0.225 | nilotinib 0.192 | [3] -0.088 | dasatinib 0.119 | [4] 0.056 | [5] -0.054 | tipifarnib -0.115 | [7] -0.042 | [8] -0.001

CTTNBP2NL (UniProt Q9P2B4)
inactive: lapatinib 0.027 | pictilisib 0.094 | crizotinib -0.079 | [1] 0.02 | gandotinib -0.352 | tozasertib 0.108 | doramapimod 0.024 | bafetinib 0.023 | [2] -0.162 | nilotinib -0.003 | [3] -0.047 | [4] 0.026 | quisinostat -0.082 | tipifarnib 0.169 | [6] -0.005 | [7] -0.007

CSGALNACT2 (UniProt Q8N6G5)
inactive: lapatinib 0.179 | crizotinib -0.112 | duvelisib -0.043 | doramapimod 0.069 | dasatinib -0.094 | [5] 0.013 | quisinostat -0.216 | [6] 0.065 | [7] 0.005 | [8] -0.1

CRYM (UniProt Q14894)
inactive: lapatinib 0.012 | pictilisib 0.059 | crizotinib -0.017 | [1] -0.029 | gandotinib 0.067 | tozasertib 0.051 | doramapimod 0.047 | bafetinib -0.08 | [2] 0.09 | quisinostat -0.063 | [6] 0.033 | [7] 0.025

CTSA (UniProt P10619)
inactive: lapatinib 0.025 | pictilisib -0.006 | crizotinib -0.023 | [1] 0.022 | duvelisib -0.039 | gandotinib 0.017 | tozasertib -0.026 | doramapimod 0.02 | bafetinib -0.055 | [2] 0.029 | nilotinib 0.023 | [3] 0.008 | dasatinib -0.029 | [4] -0.03 | [5] 0.045 | quisinostat -0.018 | tipifarnib 0.034 | [6] 0.023 | [7] 0.024 | [8] -0.063
